Data as given in PubChem BioAssay AID1224830 (NIAID, 2016).
Shown is an unselected part of about 18,000 deposited reagents. Over the whole deposit, about 2,900 (16%) were called active. 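Calls are made per well; low scores hint the gene aids the LPS response, high scores that it dampens it.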 Repeated entries: four replicate wells of each siRNA pool.

- Screen: 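Genes whose knock-down alters the TNF-alpha reporter response to LPS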 (primary screen)
- Cell system: human THP-1 monocytic leukaemia cells, TNF dual-luciferase reporter clone, PMA-differentiated to macrophage-like cells
- Reagents: siRNA pool against human genes, 50 nM
- Time to read-out: LPS for 4 h, given about 3 days after siRNA transfection
- Challenge: bacterial LPS (TLR4 ligand), 10 ng/ml
- Measured: 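Ratio of firefly to renilla light, scaled to the plate median and expressed as a robust z-score per replicate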
- Reading the numbers: TNF reporter robust z-score: higher = stronger TNF reporter response to LPS
- Call rule: 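Each well counts as active if its z-score is over 2.8 or under -1.5; controls are left without a call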

Knock-down of COX7B (GeneID 1349) [SID315448053] gave: TNF reporter robust z-score 0.55; inactive.
With knock-down of COX7B (GeneID 1349) [SID315448053], the screen gave TNF reporter robust z-score 0.5; inactive.
COX7B (GeneID 1349) [SID315448053] gave TNF reporter robust z-score -1.26; inactive.
Depletion of COX7B (GeneID 1349) [SID315448053] gave: TNF reporter robust z-score 0.96; inactive.
After knock-down of KCNA10 (GeneID 3744) [SID315449599] the results were TNF reporter robust z-score -1.21; inactive.
For KCNA10 (GeneID 3744) [SID315449599], the values are TNF reporter robust z-score 0.02; inactive.
For KCNA10 (GeneID 3744) [SID315449599], the entry reads TNF reporter robust z-score -0.57; inactive.
Depletion of KCNA10 (GeneID 3744) [SID315449599] gave: TNF reporter robust z-score -0.51; inactive.
For AARS1 (GeneID 16) [SID315447124] the deposit lists TNF reporter robust z-score -0.15; inactive.
Knock-down of AARS1 (GeneID 16) [SID315447124] came out at: TNF reporter robust z-score 1.04; inactive.
For AARS1 (GeneID 16) [SID315447124], the entry reads TNF reporter robust z-score 0.5; inactive.
AARS1 (GeneID 16) [SID315447124] scored TNF reporter robust z-score 0.77; inactive.
Knock-down of EPPK1 (GeneID 83481) [SID315460009] came out at: TNF reporter robust z-score -0.53; inactive.
Silencing of EPPK1 (GeneID 83481) [SID315460009] resulted in: TNF reporter robust z-score 0.28; inactive.
With knock-down of EPPK1 (GeneID 83481) [SID315460009], the record shows TNF reporter robust z-score 0.32; inactive.
Depletion of EPPK1 (GeneID 83481) [SID315460009] came out at: TNF reporter robust z-score 0.33; inactive.
With knock-down of RIBC2 (GeneID 26150) [SID315455692], the record shows TNF reporter robust z-score -0.11; inactive.
For RIBC2 (GeneID 26150) [SID315455692] the deposit lists TNF reporter robust z-score 0.98; inactive.
RIBC2 (GeneID 26150) [SID315455692] showed TNF reporter robust z-score -0.09; inactive.
For RIBC2 (GeneID 26150) [SID315455692], the entry reads TNF reporter robust z-score 0.88; inactive.
